# Some of these results come from one statement about several compounds together. At least one structure is not confirmed: it was looked up by name or label, or the drawing left a doubt.
# System: CEM-SS cells
# Format: cell-based
# Description: Agents Chemother. […] Briefly, cells are infected with HIV-1 RF (or other virus to be tested) in the presence of various dilutions of test compounds (thiolesters and controls). The cultures are incubated for seven days. […] The cell death is measured by XTT dye reduction. XTT is a soluble tetrazolium dye that measures mitochondrial energy output, similar to MTT. Positive controls using dextran sulfate (an attachment inhibitor) or 3′-Azido-2′-3′-dideoxythymidine, AZT (a reverse transcriptase inhibitor) are added to each assay. Individual assays are done in duplicate using a sister plate method.
row,Structure (SMILES),decrease in IC50 (more cytotoxic) compared to the parental compound
1,Nc1cccc(S(=O)(=O)c2cccc(NC(=O)c3ccccc3SSc3ccccc3C(=O)Nc3cccc(S(=O)(=O)c4cccc(N)c4)c3)c2)c1 [Compound 35],at least 3 fold
2,CC(=O)Nc1cccc(S(=O)(=O)c2cccc(NC(=O)c3ccccc3SSc3ccccc3C(=O)Nc3cccc(S(=O)(=O)c4cccc(NC(C)=O)c4)c3)c2)c1 [Compound 36],at least 3 fold
